Test results published in PubChem BioAssay AID2685 (National Center for Advancing Translational Sciences (NCATS), 2010).
Some of the results follow. Further columns of the screen follow, without active or inactive calls. Most of these compounds were active or inconclusive in the main read-out, so they are no random draw. Potencies come from curve fits of mixed quality, noted in brackets.

Assay: qHTS Assay for Lipid Storage Modulators in Drosophila S3 Cells;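 on cell number change: cells counted by Cell Tracker Red CMTPX staining in the red channel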
Conditions: BODIPY lipid droplet fluorescence, 18-24 h; for cell number change: measured here: cell count max response, cells fed with added oleic acid
In short: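 Drosophila S3 cells loaded with oleic acid (400 uM, as added) and compounds at several concentrations; lipid droplets imaged by 488-nm laser-scanning cytometry, 500–530 nm intensity and object ratio to cell channel. Percent activity normalized to 20 uM Triacsin C.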

[1] = measured here: cell number channel AC50, cells fed with added oleic acid
[2] = measured here: lipid fluorescence (Fed channel) AC50, cells fed with added oleic acid

Structure (SMILES) | cell number change | AC50 [1] | AC50 [2]
Cn1c(O)c(N=Nc2cccc(S(=O)(=O)N3CCOCC3)c2)c(=O)n(C)c1=O | 81.5% | 18.4 µM [rising, single point] | 
CCc1ccccc1NC(=O)CNCc1ccccc1 | -23.1% |  | 0.103 µM [falling, full curve, poor fit]
O=C1NC(=S)N(c2ccc(F)cc2)C(=O)/C1=C\c1ccoc1 | -21.5% |  | 
COC(=O)N1C(c2ccccc2)C1c1ccccc1 (stereo unspecified) | 4.06% |  | 29.1 µM [rising, single point]
C=CCn1c(O)c(/C=N/NC(=O)c2ccncc2)c(=O)[nH]c1=O | -9.18% | 6.51 µM [rising, single point] | 
c1ccc2c(CN3CCOCC3)c[nH]c2c1 | -11.1% |  | 18.4 µM [rising, single point]
O=C(COC(=O)Cc1ccccc1)NC(=O)NC1CCCCC1 | 8.5% |  | 
CCC(=NCc1ccco1)c1c(O)n(-c2ccc(C)cc2)c(=O)[nH]c1=O | -12.5% | 0.259 µM [rising, partial curve, poor fit] | 2.59 µM [rising, partial curve]
COC(=O)C1=C(c2ccc(F)cc2OCc2ccccc2)C[C@@H]2CC[C@H]1N2C(=O)N1CCC(C)CC1 | -10.1% |  | 
Oc1c(Br)c(Br)c(Br)c(Br)c1Br | 11.3% | 0.116 µM [falling, single point] | 
FC(F)(F)Oc1ccc(C2NCc3ccccc3-n3cccc32)cc1 (stereo unspecified) | -41.5% | 20.6 µM [falling, single point] | 20.6 µM [falling, single point]
Cc1ccc(N2C(=O)NC(=O)/C(=C\C=C\c3ccco3)C2=O)cc1 | -38.9% | 18.4 µM [falling, single point] | 29.1 µM [falling, single point]
CCNc1nc(Cl)nc(NC(C)C)n1 | 11.4% |  | 6.51 µM [falling, single point]
O=c1[nH]c(O)c(C=Nc2ccccc2[N+](=O)[O-])c(=O)[nH]1 | 14% |  | 
CCOc1ccccc1N1C(=O)CC(=O)NC1=O | -1.79% |  | 
CCS(=O)(=O)N1CCC(C(=O)N2CCC3(CC2)OCCO3)CC1 | -71.2% | 20.6 µM [falling, partial curve] | 2.06 µM [falling, single point]
CCC1(CCc2ccncc2)C(=O)NC(=O)NC1=O | -1.19% |  | 0.146 µM [falling, full curve]
CCN1CCN(C(=O)COc2ccc3c(c2)C(=O)CC2(CCN(C(C)=O)CC2)O3)CC1 | -99.9% | 3.26 µM [falling, partial curve] | 
Cn1c(N2CCNCC2)nc2ccccc21 | -7.51% | 5.8 µM [falling, partial curve, poor fit] | 0.092 µM [falling, full curve, poor fit]
COCCNC(=O)c1ccc(N2CC3CC(C2)c2cccc(=O)n2C3)c([N+](=O)[O-])c1 (stereo unspecified) | -4.75% |  | 6.51 µM [falling, single point]
Cc1ccc(S(=O)(=O)N2CCC(C(=O)N3CCC4(CC3)OCCO4)CC2)cc1 | -32.1% | 0.517 µM [falling, partial curve, poor fit] | 

Structure (SMILES) | cell number change | AC50 [1] | AC50 [2]
OC1(c2ccc(F)cc2)CC2CCC(C1)N2Cc1nnnn1C1CCCC1 (stereo unspecified) | 38.5% | 29.1 µM [rising, single point] | 29.1 µM [rising, single point]
CCCN1C2CCCC1CC(NC(C)=O)C2 (stereo unspecified) | -0.429% |  | 0.116 µM [falling, full curve, poor fit]
O=C(N/N=C/c1c(O)n(C2CC2)c(=S)[nH]c1=O)c1ccccc1Cl | 12.8% |  | 16.4 µM [rising, single point]
COc1cccc(OC)c1C(=O)NC(=S)N1C[C@H]2C[C@H](C1)c1cccc(=O)n1C2 | 29.4% |  | 
c1ccc(CCNC2CCCCCC2)cc1 | 22% |  | 6.51 µM [falling, single point]
COC(=O)c1cn(C(=O)c2cccc3ccccc23)c2ccccc12 | 39.7% | 29.1 µM [rising, single point] | 
COC(=O)C1=C(c2ccc(OC)c(OC)c2)C[C@@H]2CC[C@H]1N2C(=O)NCCc1ccccc1 | 15.6% |  | 32.6 µM [rising, single point]
CC1CCc2cc(F)cc3c(=O)c(C(=O)O)cn1c23 (stereo unspecified) |  | 29.1 µM [falling, single point] | 
Cc1ccc(S(=O)(=O)Nc2cc(C(=O)N3CCC4(CC3)OCCO4)ccc2N2CCCCC2)cc1 | 24.9% |  | 
CC(C)OP(=O)(c1ccc(N(C)C)cc1)C(O)c1ccc(Br)cc1 (stereo unspecified) |  | 0.58 µM [rising, full curve] | 
COC(=O)C(O)(c1ccc(NC(=S)NC(=O)c2ccc(Cl)cc2Cl)cc1)C(F)(F)F (stereo unspecified) | -51.3% | 6.51 µM [rising, partial curve, poor fit] | 6.51 µM [rising, partial curve, poor fit]
Cc1nc2ccc(P(=O)(O)O)cc2s1 | -16.9% |  | 5.17 µM [falling, full curve]
CC1=NN(c2ccccc2)C(=O)/C1=C/c1c(O)[nH]c(=S)[nH]c1=O | 5.72% |  | 
O=c1oc2ccccc2c(O)c1[C@H]1c2ccc(O)cc2Oc2c1c(=O)oc1ccccc21 | -4.62% |  | 29.1 µM [rising, single point]
CCOc1ccccc1CNS(=O)(=O)c1ccc2c(c1)oc(=O)n2C |  | 0.461 µM [falling, single point] | 
Cc1ccc(/C=C2\C(=O)NC(=S)N(c3ccccc3F)C2=O)s1 | -29.2% |  | 16.4 µM [falling, single point]
Cc1ccc(S(=O)(=O)NCCC(=O)Nc2ccc(Cl)cc2C(=O)c2ccccc2)cc1 | -16.1% |  | 25.9 µM [falling, single point]
O=[N+]([O-])c1cnc[nH]1 | -13.9% |  | 
COc1ccc(C(=O)O/N=C(/C(N)=O)P(=O)(OC(C)C)OC(C)C)cc1 | -30.8% | 11.6 µM [falling, partial curve] | 10.3 µM [falling, partial curve]
Cc1ccc2[nH]c(C)c(CCNCc3ccco3)c2c1 | -19.4% |  | 
CC(Cc1ccccc1Sc1ccccc1)N(C)C (stereo unspecified) | 48.6% | 0.58 µM [rising, full curve] | 6.51 µM [rising, partial curve]

3 compounds picked at random from those above:
Structure (SMILES) | cell number change | AC50 [1] | AC50 [2]
CCS(=O)(=O)N1CCC(C(=O)N2CCC3(CC2)OCCO3)CC1 | -71.2% | 20.6 µM [falling, partial curve] | 2.06 µM [falling, single point]
COc1cccc(OC)c1C(=O)NC(=S)N1C[C@H]2C[C@H](C1)c1cccc(=O)n1C2 | 29.4% |  | 
FC(F)(F)Oc1ccc(C2NCc3ccccc3-n3cccc32)cc1 (stereo unspecified) | -41.5% | 20.6 µM [falling, single point] | 20.6 µM [falling, single point]

Further compounds

Structure (SMILES) | cell number change | AC50 [1] | AC50 [2]
COc1ccccc1OCC#CCN1CCCCCC1 | -36.5% |  | 
COc1cc2c(cc1/C=C/[N+](=O)[O-])OCO2 | -41% | 18.4 µM [falling, single point] | 16.4 µM [falling, single point]
O=c1c2ccccc2nc(/C=C/c2ccc([N+](=O)[O-])o2)n1-c1ccc(O)cc1 | 3.01% | 0.103 µM [falling, full curve, poor fit] | 
COc1ccccc1N1C(=O)NC(=O)/C(=C/c2ccc3c(c2)Cc2ccccc2-3)C1=O | -50% | 3.26 µM [falling, full curve] | 23.1 µM [rising, single point]
COC(=O)C1=C(N)OC(C)=C(C(C)=O)C12C(=O)N(C)c1ccccc12 (stereo unspecified) | -2.07% |  | 
CCN(CC)C(=O)N[C@H]1C[C@@H]2c3cccc4[nH]cc(c34)C[C@H]2N(C)C1 | 15.7% |  | 9.2 µM [rising, partial curve, poor fit]
CN1/C(=C\C=C\C2=[N+](C)c3ccc4ccccc4c3C2(C)C)C(C)(C)c2ccccc21 | -98.6% | 10.3 µM [falling, partial curve] | 0.291 µM [falling, full curve, poor fit]
CCc1c(C)nc(N)nc1N1N=C1SCCOc1ccccc1 | 0.308% |  | 
NCCc1ccc(OCc2ccccc2)c(OCc2ccccc2)c1 | -75.5% | 16.4 µM [falling, partial curve] | 
O=C(/C=C/c1ccccc1)NCCc1cnc[nH]1 | -26.6% |  | 7.31 µM [falling, partial curve, poor fit]
CCC(c1ccc(C)cc1)N1C(=O)C2C3CCC(O3)C2C1=O (stereo unspecified) | 8.63% |  | 4.11 µM [rising, single point]
CCn1c(=O)n(CC(=O)N2CCC3(CC2)OCCO3)c(=O)c2ccccc21 | -5.13% |  | 29.1 µM [falling, single point]
O=c1cccc2n1CC1CC2CN(S(=O)(=O)c2ccc(F)cc2)C1 (stereo unspecified) | 89.2% |  | 
CCOc1ccc(NC(=O)C2C3c4ccccc4C(c4ccccc43)C2C(=O)O)cc1 (stereo unspecified) | 17.4% |  | 0.731 µM [rising, full curve, poor fit]
O=C1/C(=C\c2ccccc2)C2OCC=C3CN4CCC56c7ccccc7N1C5C2C3CC46 (stereo unspecified) | -0.525% |  | 6.51 µM [rising, full curve]
C/C(=N\NC(=O)c1ccccc1)c1c(O)n(C2CCCCC2)c(=O)[nH]c1=O |  |  | 0.00517 µM [rising, full curve, poor fit]
O=c1[nH]c(=S)[nH]c(O)c1N=Nc1ccc(OC(F)F)cc1 | 1.9% |  | 
O=C(O)c1ccc2c(c1)C1C(Cl)C(Sc3ccccc3[N+](=O)[O-])CC1C(c1cccc([N+](=O)[O-])c1)N2 (stereo unspecified) | -31.7% | 3.66 µM [falling, full curve, poor fit] | 
CC1(C)C(c2ccccc2)=NC(c2cccnc2)=[N+]1[O-] | 24.7% | 0.326 µM [rising, full curve, poor fit] | 1.16 µM [rising, single point]
